Values joined by “and” are separate entries in the source; they are usually repeats but may differ in a detail not shown here. Equal values may be shown once. In all, about 390,000 compounds went through this assay and about 4,000 (1%) were called active. Inconclusive means that the source gave no clear call. Such entries were picked first, then a sample of the others. The call rests on the fitted dose curve; in most records, active means well fitted inhibition curve with a large enough effect; inconclusive means small, poorly fitted or top-dose-only effect, or another doubt; inactive means no such curve, though single readings can be large or run the other way. A potency beside an inconclusive call is a rough fit, not a confirmed value. Where a structure was tested more than once in an assay, its records may differ in their call.
Target: DNA polymerase iota (Homo sapiens) (UniProt Q9UNA4)
Assay: qHTS for Inhibitors of Polymerase Iota
Conditions: Pol iota fluorescent replication assay, 10 min; series mostly up to 115 µM; activity, negative = inhibition: at the top concentration
Procedure, shortened: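 Fluorescent replication assay read twice, at 0 min and 10 min after adding 50 nM (final) substrate. Enzyme (10 nM) and compounds were first incubated 15 min at room temperature; enzyme-free buffer wells were negative controls.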
Potency means the concentration at half of the fitted maximal effect.

Sequences of proteins named here, by UniProt entry; tags and fusion partners are left off. A change or cut given only in a name is not applied to a line headed by its entry.
UniProt Q9UNA4: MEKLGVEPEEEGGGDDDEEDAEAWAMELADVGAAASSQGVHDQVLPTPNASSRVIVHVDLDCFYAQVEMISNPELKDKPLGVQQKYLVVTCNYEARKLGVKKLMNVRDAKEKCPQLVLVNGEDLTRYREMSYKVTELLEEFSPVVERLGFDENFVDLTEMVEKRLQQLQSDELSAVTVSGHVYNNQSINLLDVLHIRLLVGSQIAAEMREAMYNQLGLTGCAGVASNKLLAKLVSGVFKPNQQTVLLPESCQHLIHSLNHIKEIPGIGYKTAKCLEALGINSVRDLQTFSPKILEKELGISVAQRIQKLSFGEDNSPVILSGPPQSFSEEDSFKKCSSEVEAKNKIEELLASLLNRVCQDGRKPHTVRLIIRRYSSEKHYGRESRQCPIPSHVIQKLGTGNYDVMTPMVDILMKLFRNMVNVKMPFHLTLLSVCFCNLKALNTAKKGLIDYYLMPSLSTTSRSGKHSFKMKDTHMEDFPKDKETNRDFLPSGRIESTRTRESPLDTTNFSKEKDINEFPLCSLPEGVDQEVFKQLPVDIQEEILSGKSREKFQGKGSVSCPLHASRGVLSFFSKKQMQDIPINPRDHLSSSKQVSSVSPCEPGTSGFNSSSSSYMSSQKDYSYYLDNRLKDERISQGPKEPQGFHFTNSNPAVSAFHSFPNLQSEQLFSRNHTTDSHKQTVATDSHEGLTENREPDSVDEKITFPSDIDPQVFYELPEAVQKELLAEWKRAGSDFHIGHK

Q: For CCC(=O)c1ccc(OCCSc2ncccn2)cc1, which Potency is on record?
A: inconclusive: 3.16 µM [inhibitor, single point]

Q: CC(=O)c1c(O)cc(C)n(Nc2nc(C)cc(C)n2)c1=O was tested. Which Potency did it give?
A: inconclusive: 14.1 µM [inhibitor, partial curve]

Q: With COc1ccc(-c2c3c(=O)n(C)c(=O)n(C)c3c3c(-c4ccccc4)nc4ccccc4n23)cc1 as the compound, how does the “activity, negative = inhibition” value read?
A: inactive: 13.1%

Q: For O=C(CSc1nc2cc(C(=O)O)ccc2c(=O)n1-c1ccc(F)cc1)Nc1ccc(F)c(F)c1F, which Potency is on record?
A: inconclusive: 100 µM [inhibitor, partial curve, poor fit]

Q: For COc1cccc(C(=O)Nc2ccc3oc(-c4ccc5ccccc5c4)nc3c2)c1, which “activity, negative = inhibition” value is on record?
A: inactive: -20.5%

Q: With CNC(=O)c1cc2c(n(-c3ccc(C)cc3)c1=O)CC(C)(C)CC2=O as the compound, how does the “activity, negative = inhibition” value read?
A: inactive: 35.3%

Q: How did the “activity, negative = inhibition” value turn out when CSc1nc(N2CCN(c3ccccc3)CC2)cc(N2CCN(c3ccccc3)CC2)n1 was run?
A: inactive: 50.2%

Q: With CCc1ccccc1Nc1nn2c(=O)c3ccc(C(=O)NCc4cccs4)cc3nc2s1 as the compound, how does the Potency read?
A: active: 79.4 µM

Q: With Cc1ccc2ncnc(Nc3cccc([N+](=O)[O-])c3)c2c1 as the compound, how does the Potency read?
A: inconclusive: 89.1 µM [inhibitor, partial curve, poor fit]

Q: How did the Potency turn out when COc1ccc(N2CCN(C(=O)C3CCN(S(=O)(=O)c4cnc[nH]4)CC3)CC2)cc1 was run?
A: inconclusive: 89.1 µM [inhibitor, partial curve, poor fit]

Q: C=CCNC(=O)CN1CCC(O)(c2ccc(F)cc2)CC1 was tested. Which Potency did it give?
A: active: 100 µM

Q: CCOC(=O)Cn1c(=O)oc2cc(S(=O)(=O)Nc3cc(OC)cc(OC)c3)ccc21 was tested. Which Potency did it give?
A: inconclusive: 89.1 µM [inhibitor, single point]

Q: For CCCSc1nc(N2CCCC2)c2c(c1C#N)CC(C)(C)OC2, which Potency is on record?
A: inconclusive: 22.4 µM [inhibitor, partial curve, poor fit]

Q: Which Potency does the source give for Cc1nnsc1-c1onc(C)c1C(=O)O/N=C/c1ccc(Cl)cc1 here?
A: inconclusive: 17.8 µM [inhibitor, full curve, poor fit]

Q: How did the Potency turn out when O=C(CN1C(=O)c2ccccc2C1=O)NN1C(=O)c2ccccc2C1=O was run?
A: inconclusive: 39.8 µM [inhibitor, partial curve, poor fit]

Q: For O=C(NC1CCCCCCC1)C1CCN(c2nc3ccccc3o2)CC1, which Potency is on record?
A: inconclusive: 14.1 µM [inhibitor, partial curve, poor fit]

Q: How did the Potency turn out when CC(=O)Nc1ccc(Nc2nc3ccccc3nc2NS(=O)(=O)c2ccc(Cl)c([N+](=O)[O-])c2)cc1 was run?
A: inconclusive: 50.1 µM [inhibitor, partial curve]

Q: How did the Potency turn out when COc1cc(C)cc2oc(=O)c(CC(=O)N3CCN(C(=O)C4COc5ccccc5O4)CC3)c(C)c12 (stereo not given) was run?
A: inconclusive: 89.1 µM [inhibitor, single point]

Q: For CCCCNC(=O)CSc1nc(N)c(C(=O)Nc2ccc(OC)cc2)s1, which Potency is on record?
A: inconclusive: 3.16 µM [inhibitor, partial curve, poor fit]

Q: For N#Cc1cc(C#N)c(SCC(=O)N2CC(=O)Nc3ccccc32)nc1N, which Potency is on record?
A: inconclusive: 17.8 µM [inhibitor, full curve, poor fit]

Q: With COc1cccc(/C=C/C(=O)OCC(=O)c2ccc3c(c2)NC(=O)CO3)c1 as the compound, how does the “activity, negative = inhibition” value read?
A: inactive: 10.3%

Q: For COCCCNc1nnc(Cc2ccc(Cl)cc2)c(=O)[nH]1, which Potency is on record?
A: inconclusive: 39.8 µM [inhibitor, partial curve, poor fit]

Q: With CN1C/C(=C/c2ccsc2)C(=O)/C(=C/c2ccsc2)C1 as the compound, how does the Potency read?
A: inconclusive: 15.8 µM [inhibitor, partial curve, poor fit]

Q: For COc1cc2c(cc1OC)CN(C(=O)c1ccc([N+](=O)[O-])o1)CC2, which Potency is on record?
A: inconclusive: 28.2 µM [inhibitor, single point]

Q: With Cc1ccc(N2NC(=O)/C(=C\c3cc4c(cc3[N+](=O)[O-])OCO4)C2=O)cc1C as the compound, how does the Potency read?
A: inconclusive: 28.2 µM [inhibitor, partial curve, poor fit]

Q: Cc1cccc(S(=O)Cc2ccc(C(=O)NC3CCN(Cc4ccccc4)CC3)o2)c1 (stereo not given) was tested. Which Potency did it give?
A: inconclusive: 89.1 µM [inhibitor, single point]

Q: CC1=C(C(=O)Nc2cccnc2)C(c2ccc(F)cc2)n2nc(SCc3ccccc3F)nc2N1 (stereo not given) was tested. Which “activity, negative = inhibition” value did it give?
A: inactive: -19.8%

Q: How did the Potency turn out when Cc1noc(C)c1C(=O)Nc1nc(-c2cccs2)cs1 was run?
A: inconclusive: 1.78 µM [inhibitor, full curve, poor fit]

Q: Which Potency does the source give for CN1/C(=C\C=C2/SC(=S)NC2=O)C(C)(C)c2ccccc21 here?
A: active: 28.2 µM

Q: For CC1(C)CC(=O)C(C2C3=C(CC(C)(C)CC3=O)Oc3c(Br)cc(Br)cc32)=C(O)C1 (stereo not given), which “activity, negative = inhibition” value is on record?
A: inactive: 28.5%

Q: For CCCCCC(=O)N1CC2(CC(c3cccc(NC(=O)[C@@H]4CCC(=O)N4)c3)=NO2)C[C@@H]1C(N)=O (stereo not given in full), which “activity, negative = inhibition” value is on record?
A: inactive: 5.49%

Q: How did the “activity, negative = inhibition” value turn out when COc1ccc(NC(=O)C2CCN(C(=O)c3ccco3)CC2)c(OC)c1 was run?
A: inactive: 44%

Q: For COc1ccc(S(=O)(=O)Nc2cc(C(=O)NC3CCCCCC3)ccc2N2CCOCC2)cc1, which Potency is on record?
A: inconclusive: 14.1 µM [inhibitor, partial curve, poor fit]

Q: COc1ccc(-c2csc3ncnc(Nc4ccc(OC)c(OC)c4)c23)cc1 was tested. Which Potency did it give?
A: inconclusive: 89.1 µM [inhibitor, single point]

Q: For CCC1Nc2ncnc(N3CCOCC3)c2N(Cc2ccc(C)cc2)C1=O (stereo not given), which Potency is on record?
A: inconclusive: 39.8 µM [inhibitor, single point]

Q: Which “activity, negative = inhibition” value does the source give for O=C(c1ccc2c(c1)N(Cc1ccccc1F)C(=O)c1ccccc1S2(=O)=O)N1CCCCCC1 here?
A: inactive: 7.86%

Q: Which Potency does the source give for COc1ccc(-c2cc(-c3nnc(COC(=O)CC4CC5CCC4C5)o3)c3ccccc3n2)cc1OC (stereo not given) here?
A: inconclusive: 100 µM [inhibitor, partial curve, poor fit]

Q: How did the Potency turn out when O=C(CN1C(=O)/C(=C/c2ccco2)SC1=S)NC1CCS(=O)(=O)C1 (stereo not given) was run?
A: inconclusive: 20 µM [inhibitor, full curve, poor fit]

Q: CCCCN1C(=O)/C(=C/C=C2\Oc3ccccc3N2CC)SC1=S was tested. Which Potency did it give?
A: inconclusive: 89.1 µM [inhibitor, single point]

Q: How did the Potency turn out when COc1cccc(C(=O)N=c2sc3cc(S(C)(=O)=O)ccc3n2C)c1 was run?
A: inconclusive: 20 µM [inhibitor, partial curve]

Q: How did the “activity, negative = inhibition” value turn out when OCC(O)C[n+]1cccc(Br)c1 (stereo not given) was run?
A: inactive: 1.65%

Q: Which Potency does the source give for CCn1c(Cl)c(C=O)s/c1=N\S(=O)(=O)c1ccccc1 here?
A: inconclusive: 15.8 µM [inhibitor, partial curve, poor fit]

Q: How did the “activity, negative = inhibition” value turn out when CCC1CCCCN1C(=O)Cn1c(=O)n(-c2ccccc2C(F)(F)F)c(=O)c2c(C)c(C(=O)N(C)C)sc21 (stereo not given) was run?
A: inactive: 31.8%

Q: How did the Potency turn out when CC1(C)Cc2c(sc(NC(=O)COc3cccc4ccccc34)c2C#N)C(C)(C)N1 was run?
A: inconclusive: 35.5 µM [inhibitor, single point]

Q: For N#CC1=C(N)C(C#N)(C#N)C(c2ccc[nH]2)C2CCCC=C12 (stereo not given), which Potency is on record?
A: inconclusive: 44.7 µM [inhibitor, partial curve, poor fit]

Q: For COc1ccc(C2CC(c3cccs3)=NN2C(=O)CSc2nc(=O)n3ccc(C)cc3n2)cc1 (stereo not given), which Potency is on record?
A: active: 22.4 µM

Q: How did the Potency turn out when O=C1NC2(CCCC2)C(=O)N1Cc1cc(=O)n2ccsc2n1 was run?
A: inconclusive: 20 µM [inhibitor, full curve]

Q: How did the Potency turn out when Fc1ccccc1CSc1nnc(-c2cccs2)o1 was run?
A: inconclusive: 89.1 µM [inhibitor, single point]

Q: With CCCCc1c(O)nc(SC2CC(=O)N(c3ccc(C(=O)OCC)cc3)C2=O)[nH]c1=O (stereo not given) as the compound, how does the Potency read?
A: inconclusive: 44.7 µM [inhibitor, partial curve, poor fit]

Q: Which “activity, negative = inhibition” value does the source give for Cc1cccc(N=Nc2c(C)c(C#N)c(O)[nH]c2=O)c1 here?
A: inactive: 118%

Q: For CCOc1ccc(OCC)c(NC(=O)CN(c2ccc(C)cc2)S(=O)(=O)c2c(C)n[nH]c2C)c1, which “activity, negative = inhibition” value is on record?
A: inactive: 9.87%

Q: Which Potency does the source give for CC(=O)Nc1cccc(NC(=O)CSc2ncc(-c3ccccc3)[nH]2)c1 here?
A: inconclusive: 63.1 µM [inhibitor, single point]

Q: O=C(CN1C(=O)COc2ccc(S(=O)(=O)Nc3ccccc3)cc21)NCc1ccccc1Cl was tested. Which “activity, negative = inhibition” value did it give?
A: inactive: 23.4%

Q: Which Potency does the source give for Cc1cc2c(cc1C)CSC(c1c(O)ccc3ccccc13)SC2 here?
A: inconclusive: 22.4 µM [inhibitor, single point]

Q: For CCOc1ccc(C(=O)Nc2c(C(N)=O)oc3ccccc23)cc1, which Potency is on record?
A: inconclusive: 56.2 µM [inhibitor, partial curve, poor fit]

Q: Oc1ccc(C2CNCCc3c2cc(O)c(O)c3Cl)cc1 (stereo not given) was tested. Which Potency did it give?
A: inactive and active: 14.1 µM

Q: With CCNC(=S)NNC(=O)C(c1ccccc1)c1ccccc1 as the compound, how does the Potency read?
A: inconclusive: 100 µM [inhibitor, single point]

Q: Cc1ccc(C(=O)COc2nc(C)cc(C)c2C#N)cc1 was tested. Which Potency did it give?
A: inconclusive: 100 µM [inhibitor, single point]

Q: For CCOC(=O)c1ccc(N2C(=O)c3[nH]nc(-c4ccccc4)c3C2c2cccs2)cc1 (stereo not given), which Potency is on record?
A: inconclusive: 89.1 µM [inhibitor, partial curve, poor fit]

Q: With O=C1/C(=C/c2cccs2)Cc2ccccc21 as the compound, how does the “activity, negative = inhibition” value read?
A: inactive: 18.2%

Q: How did the “activity, negative = inhibition” value turn out when CC(C)(O)C#Cc1ccc(C(=O)N2CCCC(CNS(=O)(=O)c3cccs3)C2)o1 (stereo not given) was run?
A: inactive: 0.9%

Q: For O=S1(=O)c2ccccc2N(Cc2ccccc2Cl)c2ccccc21, which Potency is on record?
A: inconclusive: 100 µM [inhibitor, single point]

Q: How did the “activity, negative = inhibition” value turn out when COc1ccc(CCNC(=O)c2cc3c(=O)n(C)c4cc(Cl)ccc4c3s2)cc1OC was run?
A: inactive: -7.82%

Q: For COCCCN1C(=O)C(=O)/C(=C(/O)c2ccc(OC)cc2)C1c1ccc(O)c(OC)c1 (stereo not given), which Potency is on record?
A: inconclusive: 1 µM [inhibitor, full curve, poor fit]

Q: With Cc1ccc(S(=O)(=O)NCCC(=O)Nc2nnc(C3CC3)s2)cc1C as the compound, how does the Potency read?
A: inconclusive: 8.91 µM [inhibitor, single point]

Reference: PubChem BioAssay AID588590 (National Center for Advancing Translational Sciences (NCATS), 2011)
